Experimental data taken from patent US20250026757A1, “Bicyclic Compounds for the Control of Invertebrate Pests” (BASF SE, priority 2021, published 2025).
Some results were stated once for a whole list of compounds, not compound by compound. At least one structure is not confirmed: it was looked up by name or label, or the drawing left a doubt.

Tests used:
Format in all cases: in vivo
[1] = tested on: Aedes aegypti; details: 2500 ppm; larval mortality; 2 days
Procedure: B.5 Yellow Fever Mosquito (Aedes aegypti)
For evaluating control of yellow fever mosquito (Aedes aegypti) the test unit consisted of 96-well-microtiter plates containing 200 μl of tap water per well and 5-15 freshly hatched A. aegypti larvae.
The active compounds were formulated using a solution containing 75% (v/v) water and 25% (v/v) DMSO. Different concentrations of formulated compounds or mixtures were sprayed onto the insect diet at 2.5 μl, using a custom-built micro atomizer, at two replications.
After application, microtiter plates were incubated at 28±1° C., 80±5% RH for 2 days. Larval mortality was then visually assessed.

[2] = tested on: Anthonomus grandis; assay: Boll weevil (Anthonomus grandis) test, eggs on insect diet in 96-well microtiter plates; details: 2500 ppm; egg and larval mortality; 5 days
Procedure: B.3 Boll Weevil (Anthonomus grandis)
For evaluating control of boll weevil (Anthonomus grandis), the test unit consisted of 96-well-microtiter plates containing an insect diet and 5-10 A. grandis eggs.
The compounds were formulated using a solution containing 75% v/v water and 25% v/v DMSO. Different concentrations of formulated compounds were sprayed onto the insect diet at 5 μl, using a custom-built micro atomizer, at two replications.
After application, microtiter plates were incubated at about 25±1° C. and about 75±5% relative humidity for 5 days. Egg and larval mortality was then visually assessed.

[3] = tested on: Myzus persicae; assay: Green peach aphid (Myzus persicae) systemic test, artificial diet in 96-well microtiter plates; details: 2500 ppm; adult aphids on treated diet; 3 days
From the text: B.1 Green Peach Aphid (Myzus persicae)
For evaluating control of green peach aphid (Myzus persicae) through systemic means, the test unit consisted of 96-well-microtiter plates containing liquid artificial diet under an artificial membrane.
The compounds were formulated using a solution containing 75% v/v water and 25% v/v DMSO. Different concentrations of formulated compounds were pipetted into the aphid diet, using a custom built pipetter, at two replications.
After application, 5-8 adult aphids were placed on the artificial membrane inside the microtiter plate wells. The aphids were then allowed to suck on the treated aphid diet and incubated at about 23±1° C. and about 50±5% relative humidity for 3 days. Aphid mortality and fecundity was then visually assessed.

[4] = tested on: Heliothis virescens; assay: Tobacco budworm (Heliothis virescens) test, eggs on insect diet in 96-well microtiter plates; details: 2500 ppm; egg and larval mortality; 5 days
Procedure: B.2 Tobacco Budworm (Heliothis virescens)
For evaluating control of tobacco budworm (Heliothis virescens), the test unit consisted of 96-well-microtiter plates containing an insect diet and 15-25 H. virescens eggs.
The compounds were formulated using a solution containing 75% v/v water and 25% v/v DMSO. Different concentrations of formulated compounds were sprayed onto the insect diet at 10 μl, using a custom-built micro atomizer, at two replications.
After application, microtiter plates were incubated at about 28±1° C. and about 80±5% relative humidity for 5 days. Egg and larval mortality was then visually assessed.

[5] = tested on: Spodoptera eridania; assay: Southern armyworm (Spodoptera eridania), 2nd instar larvae, foliar spray on lima bean plants; details: 300 ppm; 2nd instar larvae on sprayed lima bean; 4 days after treatment
Procedure: B.4. Southern Armyworm (Spodoptera eridania), 2nd Instar Larvae
The active compounds were formulated by a Tecan liquid handler in 100% cyclohexanone as a 10,000-ppm solution supplied in tubes. The 10,000-ppm solution was serially diluted in 100% cyclohexanone to make interim solutions. These served as stock solutions for which final dilutions were made by the Tecan in 50% acetone:50% water (v/v) into 10 or 20 ml glass vials. A non-ionic surfactant (Kinetic®) was included in the solution at a volume of 0.01% (v/v). The vials were then inserted into an automated electrostatic sprayer equipped with an atomizing nozzle for application to plants/insects. Lima bean plants (variety Sieva) were grown 2 plants to a pot and selected for treatment at the 1st true leaf stage. Test solutions were sprayed onto the foliage by an automated electrostatic plant sprayer equipped with an atomizing spray nozzle. The plants were dried in the sprayer fume hood and then removed from the sprayer. Each pot was placed into perforated plastic bags with a zip closure. Ten to 11 armyworm larvae were placed into the bag and the bags zipped closed. Test plants were maintained in a growth room at about 25° C. and about 20-40% relative humidity for 4 days, avoiding direct exposure to fluorescent light (14:10 light:dark photoperiod) to prevent trapping of heat inside the bags. Mortality and reduced feeding were assessed 4 days after treatment, compared to untreated control plants.

Measured: mortality in comparison with untreated controls

CCS(=O)(=O)c1cc(-c2ccc(C#N)cc2)cnc1-c1cc(=O)n2c(cc(C(F)(F)F)n2C)n1 [Compound I-5]
at least 75%: all assays above

CCS(=O)(=O)c1cc(-c2ccc3c(c2)OC(F)(F)O3)cnc1-c1cc(=O)n2c(cc(C(F)(F)F)n2C)n1 [Compound I-6]
at least 75%: all assays above

CCS(=O)(=O)c1cc(-c2ccc(F)cc2)ccc1-c1cc(=O)n2c(cc(C(F)(F)F)n2C)n1 [Compound I-8]
at least 75%: all assays above

CCS(=O)(=O)c1cc(N=S(C)(C)=O)ccc1-c1cc(=O)n2c(cc(C(F)(F)F)n2C)n1 [Compound I-9]
at least 75%: [3] | [4]

CCS(=O)(=O)c1cc(-c2ccc(F)cc2)cnc1-c1cc(=O)n2c(cc(C3CC3)n2C)n1 [Compound I-11]
not listed: [1]
at least 75%: all other assays above

CCS(=O)(=O)c1cc(-c2ccc(C#N)nc2)cnc1-c1cc(=O)n2c(cc(C(F)(F)F)n2C)n1 [Compound I-14]
at least 75%: all assays above

CCS(=O)(=O)c1cc(-c2ccc(F)nc2)cnc1-c1cc(=O)n2c(cc(C(F)(F)F)n2C)n1 [Compound I-15]
at least 75%: all assays above

CCS(=O)(=O)c1cccnc1-c1cc(=O)n2c(n1)c(-c1ccc(F)cc1)cn2C [Compound I-21]
at least 75%: [2] | [3]
